Reference: US9493539B2, “Peptides associated with HLA-DR MHC class II molecules involved in autoimmune diseases” (LONDON HEALTH SCIENCES CENTRE RESEARCH INC., priority 2003, dated 2016)

Test system: anti-citrulline antibodies
Assay: ELISA detection of anti-citrulline antibodies in human serum for diagnosis of RA

In the case of “[Cit][Cit]Y[Cit]G[Cit][Cit]S[Cit][Cit]S[Cit][Cit] [JED]”, the “correlation co-efficient with the commercial CCP kit” value (51 rheumatoid arthritis patients, human serum) is reported as 0.48, the “Specificity (%)” value (Table 1, for rheumatoid arthritis, 48 patients with other rheumatic diseases) is reported as 94% and the “Sensitivity (%)” value (Table 1, for rheumatoid arthritis, 74 RA patients) is reported as 66%. For the same substance, the “Sensitivity (%)” value (Table 2, diagnosis of rheumatoid arthritis, 51 RA patients) was 71% and the “Specificity (%)” value (Table 2, diagnosis of rheumatoid arthritis, vs 49 psoriatic arthritis patients) was 98%.

Square brackets hold non-standard residues; d marks the D form. Ends that are not written are not given here. Cit = NC(=O)NCCC[C@H](N)C(=O)O
